Source: the RNAGym collection of RNA variant scans (doi:10.1126/science.aae0568)
This sample is rich in variants without activity.

B1: tRNA (parent)
chain: GUUCCGUUGGCGUAAUGGUAACGCGUCUCCCUCCUAAGGAGAAGACUGCGGGUUCGAGUCCCGUACGGAACG

Variants of: B1
Assay: yeast fitness relative to wild type (ratio to wild type); higher = fitter; tRNA-Arg(CCU), competitive growth, 37 C, YPD
Summary of the method: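 For this measurement, the tRNA-Arg(CCU) gene was varied by chemical synthesis at a 3% per-site mutation rate across 69 sites, and each variant was placed at the native genomic locus in Saccharomyces cerevisiae. The pooled strains went through a 24-hour competition in YPD at 37°C in six parallel replicates, with amplicons from start and end populations read by 100-nucleotide paired-end sequencing. Darwinian fitness relative to wild type followed from the change in each genotype's frequency. Genotypes needed ≥ 100 starting reads, and estimates < 0.5 were set to 0.5.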

GUUCCAUUGGCAUAAUGGUAACGCGUCUCCCUCCUUAGGAGAAGACUGCGGGUCCGAGUCCCGUACGGAACG and GUUCCAUUGGCCUAAUCGUAACGCGUCUCCCUCCUAAGGAGAAGACUGCGAGUUCGAGUCCCGUACGGAACG cannot be ordered by yeast fitness: no more than 0.5 for the first, no more than 0.5 for the second.

GUUCCAUUGGCGUAAUAGUAACGCGUCUCCCUCCUAAGGAGAAGACUGCGGGUUCGAGUGCCAUUUGGAACG and GUUCCAUUGGCGUAAUGCUAACGCGUCUCCCUCCUGAGGAGAAGACUGCGGGUUCGAGUCCCGUACGGAACG cannot be ordered by yeast fitness: no more than 0.5 for the first, no more than 0.5 for the second.

GUUCCAUUGGCGUAAUGGUAACGCCUCUCCCUUCUAAGGAGAAGACUACGGGUUCGAGUCCCGUACGGAACG and GUUCCAUUGGCGUAAUGGUAACGCGUCUCCCUCCUAAAGAGAAGACUGCGGGUUCGAGUCACGUACGGAACG cannot be ordered by yeast fitness: no more than 0.5 for the first, no more than 0.5 for the second.

GUUCCAUUGGCGUAAUGGUAACGCGUCUCCCUCCUAACGAGAAGACUGCGGGUUCGAGUCCCGUACUGAACG and GUUCCAUUGGCGUAAUGGUAACGCGUCUCCCUCCUAAGCAGAGCUCUGGGGGUUCGAGUCCCGUACCGAACG cannot be ordered by yeast fitness: no more than 0.5 for the first, no more than 0.5 for the second.

Going from GUUCCAUUGGCGUAAUGGUAACGCGUCUCCCUCCUAAGGAGAAAACUGCGGGUUCGAGUCCCGUACGGCACG to GUUCCAUUGGCGUAAUGGUAACGCGUCUCCCUCCUAAGGAGAACACUGCGGGUUCGAGUCCCGUACGAAACG, the yeast fitness falls from 0.576 to no more than 0.5.

GUUCCAUUGGCGUAAUGGUAACGCGUCUCCCUCCUAAGGAGAAGACUGCAGGUUCGAGUACCGUACGUAACG and GUUCCAUUGGCGUAAUGGUAACGCGUCUCCCUCCUAAGGAGAAGACUGCGAGUUCGAGUCCCAUACGGAACG cannot be ordered by yeast fitness: no more than 0.5 for the first, no more than 0.5 for the second.

GUUCCAAUGGCGUAAUGGUAACGGGUCUCCCUCCUAAGGAGAAGACUGCGGGUUCGAGUGCCCUACGGAACG and GUUCCAGUGGCGUAAUGGUAACGCGUUUCCCUUCUAAGGAGAAGACUGCGGGUUCGAGUCCCGUACGGAACG cannot be ordered by yeast fitness: no more than 0.5 for the first, no more than 0.5 for the second.

GUUCCAUAGGCGUCAUGGUAUCGCGUCUCCCUCCUAAGGGGAAGACUGCGGGUUCGAGUCCCGUACGGAACG and GUUCCAUCGGCGUAAUGGUAACGUGUCUGCCUCCUAAGGAGAAGACUGAGGGUUCGAGUCCCGUACGGAACG cannot be ordered by yeast fitness: no more than 0.5 for the first, no more than 0.5 for the second.

GUUCCAUUGGCGAAGUGGUAACGCGUCCCCCUCCUAAGGAGAAGACUGCGGGUUCGAGUCCCGUACGGAACG and GUUCCAUUGGCGCAAUGGUAACGCGUCUCCCUCCUAAGGAGAAGACUGCGGAUUCGAGCCCCGUAAAGAACG cannot be ordered by yeast fitness: no more than 0.5 for the first, no more than 0.5 for the second.

First: GUUCCAUUGGCGGAAUGGUAACGCGUCUCCCUCCUAAGGAGAAAAAUGCGGAUUCGAGUCCCGUAUGGAACG
Second: GUUCCAUUGGCGUAAGGGUAGCGCGUCUCCCUCCUAAGGGGUAGACUGCGGGUUCGAGUCCCGUACGGAACG
The yeast fitness of the first is lower: no more than 0.5 for the first, 0.535 for the second.

Compared with GUUCCAUUGGCGUAAUGGGAACGCGUCUCCCUCCUAAGGAGAAGACUGCGGGUUCGAGUACCGUACGGAACG, GUUCCAUUGGCGUAAUGGUAACGCGACUCCCUACUAAGGAGAAGACUGCGCGUUCGAGUCCUGUACGGAACG is higher in yeast fitness: no more than 0.5 for the first, 0.591 for the second.

GUUCCAUUGGCGUAAUGGUAACGCGCCUCCCUCCUAAGGAGAAGACUGCCGGUUCGAGUCCCGUACGGAACG and GUUCCAUUGGCGUAAUGGUAACGCGUCUCCCUCCUAAGGAGAAGACAGCGGGUUCGUGUCCCGUACGGAACG cannot be ordered by yeast fitness: no more than 0.5 for the first, no more than 0.5 for the second.

GUUCCAUUGGCGUAAUGGUAACGCGUCUCCCUCCUAAGGAGAAGACUGCGGGUCCGUAUCCCGUUCGGAACG and GUUCCCUUGGCGUCAUGGUAACGCGUCUCCCUCCUAAGGAGAAGACUGUGGGUUCGAGUCCCGUACGGAACG cannot be ordered by yeast fitness: no more than 0.5 for the first, no more than 0.5 for the second.

GUUCCCUUGGCGUCACGGUAACGCGUCUCCCUCCUAAGGAGAAGACUGCGGGUUCGAGUCCCGUACGGAACG and GUUCCCUUGGCGUACUGGUAACGCGUCUCCCUCCUAAGGAGAAGACUGCGGGUUCGAGUCCCCUACGGAACG cannot be ordered by yeast fitness: no more than 0.5 for the first, no more than 0.5 for the second.

GUUCCCUUGGCGUAGUGGUAACGCGUCUCCCUCCUACGGAGAAGACUGCGGGUUCGAGUCCCGCACGGAACG and GUUCCCUUGGCGUAGUGGUAAAGCGUCUGCCUCCUACGGAGAAGACUGCCGGUUCGAGUCCCGUAUGGAACG cannot be ordered by yeast fitness: no more than 0.5 for the first, no more than 0.5 for the second.

GUUCCCUUGGCGUAAUGGUCGCGCGUCUCCCUCCUAAGGAGAAGACUGCGGGUUCGAGUCCCGUAGGGAACG and GUUCCCUUGGCGUAAUGGUUGCGCGUCUCCCUCCUAUGGAGAAGACUGCGGGUUCGAGUCCCGUACGGAACG cannot be ordered by yeast fitness: no more than 0.5 for the first, no more than 0.5 for the second.

GUUCCCUUGGCGUAAUGGUAACGCGUCUCCCUCCUACGGAGAAGACUGCGAGCUCGAGUCCAGUACGGAACG and GUUCCCUUGGCGUAAUGGUAACGCGUCUCCCUCCUAUGGAGAAGACUGUGGGUUCGAGUCCCGUACGGAACG cannot be ordered by yeast fitness: no more than 0.5 for the first, no more than 0.5 for the second.

GUUCCCUUGGAGUAAUGGUGACGCGUCUCCCUCCUAAGGAGAAGACUCCGGGUUCGAGUCCCGUACGGAACG and GUUCCCUUGGGGUACUGGUAACGCCUGUCGCUCCUAACGAGAAGACAGCGGGUUCGAGUGCCGUACGGAGCG cannot be ordered by yeast fitness: no more than 0.5 for the first, no more than 0.5 for the second.

GUUCCCUUGGGGUACUGGUAACGCCAGUCGCUCCUAACGAGAAGACUGCGGGUUCGAGUCCCGUACGGAACG and GUUCCCUUGGUCUAAUGGUAACGCGUCUCUUUCCUAAGGAGAAGACUGCGGGUUCGAGUCCCGUACGGAACG cannot be ordered by yeast fitness: no more than 0.5 for the first, no more than 0.5 for the second.
